Assay [1] has as its target full-length human ABCB6 (ABCB6–HA and ABCB6–FLAG, co-expressed) (human) (UniProt Q9NP58). The assay can be described thus: co-IP; HA- and FLAG-tagged ABCB6 variants transiently co-expressed in HeLa cells; lysis in 45 mM Tris, 135 mM NaCl, 0.5% NP-40, 10 mM NEM; anti-FLAG antibody on Protein A/G agarose beads; eluate blotted with anti-HA.
For assay [2], the target named is N-terminally truncated ABCB6–core (206–ABCB6–core), HA- and FLAG-tagged copies (human) (UniProt Q9NP58). The description is as above.

Results are given in words; binding and its absence hold for the method and conditions named. In cells and extracts the contact can be indirect. Some binding calls cover weakened binding; strength is not graded here. Where a sequence is shown, tags or fusion partners need not be part of it.

B1: full-length human ABCB6 (ABCB6–HA and ABCB6–FLAG, co-expressed) (protein, UniProt Q9NP58-1 1-842)
chain: MVTVGNYCEAEGPVGPAWMQDGLSPCFFFTLVPSTRMALGTLALVLALPCRRRERPAGADSLSWGAGPRISPYVLQLLLATLQAALPLAGLAGRVGTARGAPLPSYLLLASVLESLAGACGLWLLVVERSQARQRLAMGIWIKFRHSPGLLLLWTVAFAAENLALVSWNSPQWWWARADLGQQVQFSLWVLRYVVSGGLFVLGLWAPGLRPQSYTLQVHEEDQDVERSQVRSAAQQSTWRDFGRKLRLLSGYLWPRGSPALQLVVLICLGLMGLERALNVLVPIFYRNIVNLLTEKAPWNSLAWTVTSYVFLKFLQGGGTGSTGFVSNLRTFLWIRVQQFTSRRVELLIFSHLHELSLRWHLGRRTGEVLRIADRGTSSVTGLLSYLVFNVIPTLADIIIGIIYFSMFFNAWFGLIVFLCMSLYLTLTIVVTEWRTKFRRAMNTQENATRARAVDSLLNFETVKYYNAESYEVERYREAIIKYQGLEWKSSASLVLLNQTQNLVIGLGLLAGSLLCAYFVTEQKLQVGDYVLFGTYIIQLYMPLNWFGTYYRMIQTNFIDMENMFDLLKEETEVKDLPGAGPLRFQKGRIEFENVHFSYADGRETLQDVSFTVMPGQTLALVGPSGAGKSTILRLLFRFYDISSGCIRIDGQDISQVTQASLRSHIGVVPQDTVLFNDTIADNIRYGRVTAGNDEVEAAAQAAGIHDAIMAFPEGYRTQVGERGLKLSGGEKQRVAIARTILKAPGIILLDEATSALDTSNERAIQASLAKVCANRTTIVVAHRLSTVVNADQILVIKDGCIVERGRHEALLSRGGVYADMWQLQQGQEETSEDTKPQTMER
As for B1, the binding entry in assay [1] was “binds”.

B2: N-terminally truncated ABCB6–core (206–ABCB6–core), HA- and FLAG-tagged copies (domain or fragment, UniProt Q9NP58-1 206-842)
chain: APGLRPQSYTLQVHEEDQDVERSQVRSAAQQSTWRDFGRKLRLLSGYLWPRGSPALQLVVLICLGLMGLERALNVLVPIFYRNIVNLLTEKAPWNSLAWTVTSYVFLKFLQGGGTGSTGFVSNLRTFLWIRVQQFTSRRVELLIFSHLHELSLRWHLGRRTGEVLRIADRGTSSVTGLLSYLVFNVIPTLADIIIGIIYFSMFFNAWFGLIVFLCMSLYLTLTIVVTEWRTKFRRAMNTQENATRARAVDSLLNFETVKYYNAESYEVERYREAIIKYQGLEWKSSASLVLLNQTQNLVIGLGLLAGSLLCAYFVTEQKLQVGDYVLFGTYIIQLYMPLNWFGTYYRMIQTNFIDMENMFDLLKEETEVKDLPGAGPLRFQKGRIEFENVHFSYADGRETLQDVSFTVMPGQTLALVGPSGAGKSTILRLLFRFYDISSGCIRIDGQDISQVTQASLRSHIGVVPQDTVLFNDTIADNIRYGRVTAGNDEVEAAAQAAGIHDAIMAFPEGYRTQVGERGLKLSGGEKQRVAIARTILKAPGIILLDEATSALDTSNERAIQASLAKVCANRTTIVVAHRLSTVVNADQILVIKDGCIVERGRHEALLSRGGVYADMWQLQQGQEETSEDTKPQTMER
For B2, the binding result in assay [2] was “binds”.

The record behind these values is paper PMC4410673.
